Source: publication doi:10.1101/2025.09.08.674948

Columns and labels:
[1] = target: HLA-A2-BioID2 (human); experiment: proximity labelling
[2] = target: HLA-A2-TurboID (human); experiment: proximity labelling

Binder	binding [1]	binding [2]
MGAT1 (enzyme, UniProt P26572 1-445) MLKKQSAGLVLWGAILFVAWNALLLLFFWTRPAPGRPPSVSALDGDPASLTREVIRLAQDAEVELERQRGLLQQIGDALSSQRGRVPTAAPPAQPRVPVTPAPAVIPILVIACDRSTVRRCLDKLLHYRPSAELFPIIVSQDCGHEETAQAIASYGSAVTHIRQPDLSSIAVPPDHRKFQGYYKIARHYRWALGQVFRQFRFPAAVVVEDDLEVAPDFFEYFRATYPLLKADPSLWCVSAWNDNGKEQMVDASRPELLYRTDFFPGLGWLLLAELWAELEPKWPKAFWDDWMRRPEQRQGRACIRPEISRTMTFGRKGVSHGQFFDQHLKFIKLNQQFVHFTQLDLSYLQREAYDRDFLARVYGAPQLQVEKVRTNDRKELGEVRVQYTGRDSFKAFAKALGVMDDLKSGVPRAGYRGIVTFQFRGRRVHLAPPLTWEGYDPSWN	binds	–
MGAT2 (enzyme, UniProt Q10469 1-447) MRFRIYKRKVLILTLVVAACGFVLWSSNGRQRKNEALAPPLLDAEPARGAGGRGGDHPSVAVGIRRVSNVSAASLVPAVPQPEADNLTLRYRSLVYQLNFDQTLRNVDKAGTWAPRELVLVVQVHNRPEYLRLLLDSLRKAQGIDNVLVIFSHDFWSTEINQLIAGVNFCPVLQVFFPFSIQLYPNEFPGSDPRDCPRDLPKNAALKLGCINAEYPDSFGHYREAKFSQTKHHWWWKLHFVWERVKILRDYAGLILFLEEDHYLAPDFYHVFKKMWKLKQQECPECDVLSLGTYSASRSFYGMADKVDVKTWKSTEHNMGLALTRNAYQKLIECTDTFCTYDDYNWDWTLQYLTVSCLPKFWKVLVPQIPRIFHAGDCGMHHKKTCRPSTQSAQIESLLNNNKQYMFPETLTISEKFTVVAISPPRKNGGWGDIRDHELCKSYRRLQ	binds	–
TIGAR (enzyme, UniProt Q9NQ88 1-270) MARFALTVVRHGETRFNKEKIIQGQGVDEPLSETGFKQAAAAGIFLNNVKFTHAFSSDLMRTKQTMHGILERSKFCKDMTVKYDSRLRERKYGVVEGKALSELRAMAKAAREECPVFTPPGGETLDQVKMRGIDFFEFLCQLILKEADQKEQFSQGSPSNCLETSLAEIFPLGKNHSSKVNSDSGIPGLAASVLVVSHGAYMRSLFDYFLTDLKCSLPATLSRSELMSVTPNTGMSLFIINFEEGREVKPTVQCICMNLQDHLNGLTETR	–	binds
SLC37A4 (protein, UniProt O43826 1-429) MAAQGYGYYRTVIFSAMFGGYSLYYFNRKTFSFVMPSLVEEIPLDKDDLGFITSSQSAAYAISKFVSGVLSDQMSARWLFSSGLLLVGLVNIFFAWSSTVPVFAALWFLNGLAQGLGWPPCGKVLRKWFEPSQFGTWWAILSTSMNLAGGLGPILATILAQSYSWRSTLALSGALCVVVSFLCLLLIHNEPADVGLRNLDPMPSEGKKGSLKEESTLQELLLSPYLWVLSTGYLVVFGVKTCCTDWGQFFLIQEKGQSALVGSSYMSALEVGGLVGSIAAGYLSDRAMAKAGLSNYGNPRHGLLLFMMAGMTVSMYLFRVTVTSDSPKLWILVLGAVFGFSSYGPIALFGVIANESAPPNLCGTSHAIVGLMANVGGFLAGLPFSTIAKHYSWSTAFWVAEVICAASTAAFFLLRNIRTKMGRVSKKAE	–	binds

These are yes or no findings as the source states them, for the method shown. In cells and extracts the contact can be indirect. These calls come from enrichment with a bait or labelling near it, and not all partners need be listed.
